From PubChem BioAssay AID2685 (National Center for Advancing Translational Sciences (NCATS), 2010)
The list shows a part of the results. The main result of the screen is listed elsewhere. These columns were measured beside it and carry no call. The list favours compounds with an active or inconclusive main result. Potencies come from curve fits of mixed quality, noted in brackets.

Experiment: qHTS Assay for Lipid Storage Modulators in Drosophila S3 Cells;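 for cell number change: cells counted by Cell Tracker Red CMTPX staining in the red channel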
Conditions: BODIPY lipid droplet fluorescence, 18-24 h; for cell number change: measured here: cell count max response, cells fed with added oleic acid
Method in brief: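 Drosophila S3 cells loaded with oleic acid (400 uM, as added) and compounds at several concentrations; lipid droplets imaged by 488-nm laser-scanning cytometry, 500–530 nm intensity and object ratio to cell channel. Percent activity normalized to 20 uM Triacsin C.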

[1] = measured here: cell number channel AC50, cells fed with added oleic acid
[2] = measured here: lipid fluorescence (Fed channel) AC50, cells fed with added oleic acid

Question: Which AC50 [1] does the source give for O=C(OCC(=O)N1CCN(c2ccccc2)CC1)c1cnc(Cl)c(Cl)c1 here?
Answer: 0.206 µM [rising, full curve]

Question: For O=C(Cc1ccccc1)Nn1c(O)c(/C=C2\C=Nc3ccccc32)sc1=S, which cell number change is on record?
Answer: -60.2%

Question: And the AC50 [1]?
Answer: 20.6 µM [falling, partial curve]

Question: And the AC50 [2]?
Answer: 18.4 µM [falling, single point]

Question: With CN(C(=O)c1ccc(NC(=O)Cc2cccc(NC(=O)C3CCCN(C(=O)C4CCCCC4)C3)c2)cc1)C1CCCC1 (configuration not stated) as the compound, how does the cell number change read?
Answer: -5.1%

Question: For CC12CN3CC(C)(CN(C1)C3c1ccc(Br)cc1O)C2 (configuration not stated), which cell number change is on record?
Answer: 12.8%

Question: With CC(C)(C)c1cc(C(=O)NNc2cc(C(F)(F)F)ccc2Cl)n(Cc2ccccc2)n1 as the compound, how does the AC50 [2] read?
Answer: 16.4 µM [falling, single point]

Question: For Cc1nc(SCC(=O)NC(=O)NCc2ccccc2)nc(C)c1C, which cell number change is on record?
Answer: 47.3%

Question: And the AC50 [1]?
Answer: 2.59 µM [rising, full curve]

Question: What about the AC50 [2] of the same compound?
Answer: 5.8 µM [rising, partial curve]

Question: Which results are given for CCOC(=O)c1c(C)n(C)c2cc(Br)c(C)cc12?
Answer: cell number change: 48.4%; AC50 [1]: 18.4 µM [rising, single point]; AC50 [2]: 6.51 µM [rising, single point]

Question: For CC(C)(C)C(=O)C(Cl)C(=O)Nc1ccccc1 (configuration not stated), which cell number change is on record?
Answer: -14.4%

Question: What about the AC50 [2] of the same compound?
Answer: 32.6 µM [falling, single point]

Question: Which cell number change does the source give for COCCCn1c(=O)c2ccccc2n(Cc2ccc(C)cc2)c1=O here?
Answer: -9.11%

Question: What about the AC50 [2] of the same compound?
Answer: 0.206 µM [rising, full curve, poor fit]

Question: Which cell number change does the source give for N=c1sccn1CC(=O)Nc1cccc(S(=O)(=O)N2CCCCCC2)c1 here?
Answer: 23.1%

Question: What about the AC50 [1] of the same compound?
Answer: 0.92 µM [falling, full curve]

Question: And the AC50 [2]?
Answer: 1.84 µM [falling, partial curve]

Question: What does the source list for CCCCC#Cc1ccc2c(c1)COc1c3ccccc3nn1-2?
Answer: cell number change: 7.81%; AC50 [2]: 6.51 µM [rising, partial curve]

Question: Which cell number change does the source give for O=C(Nc1c(F)cc(F)cc1Br)c1cc(-c2ccco2)on1 here?
Answer: 4.31%

Question: With Cc1ccc(N(C(=O)C2CCCO2)C2C=CS(=O)(=O)C2)cc1Cl (configuration not stated) as the compound, how does the cell number change read?
Answer: -10.6%

Question: And the AC50 [2]?
Answer: 1.03 µM [falling, full curve]

Question: Which cell number change does the source give for CCNC(=S)NS(=O)(=O)c1ccc(F)cc1 here?
Answer: 2.02%

Question: For COc1ccc(C2(O)CCN(C(=O)c3ccc4c(c3)OCO4)CC2)cc1, which cell number change is on record?
Answer: 30.5%

Question: What about the AC50 [1] of the same compound?
Answer: 9.2 µM [rising, partial curve]

Question: Which results are given for C/C(=N\NC1=N[C@H]2CS(=O)(=O)C[C@H]2S1)c1ccccc1?
Answer: cell number change: 12.9%; AC50 [2]: 1.03 µM [falling, full curve, poor fit]

Question: Which cell number change does the source give for COc1cc(NC(=O)c2ccccc2)c(OC)cc1NC(=O)CN1C(=O)NC2(CCCCC2C)C1=O (configuration not stated) here?
Answer: 1.1%

Question: With O=C(CN(C(=O)c1csnn1)c1ccccc1Cl)NC1CCCCC1 as the compound, how does the cell number change read?
Answer: 13.7%
